# From the supplement of paper PMC10849652
# Chains of the proteins cited; added tags and fusions are not shown. Lines headed by an entry give the natural chain unless they say otherwise; changes in a name come on top.
# UniProt Q96AY4: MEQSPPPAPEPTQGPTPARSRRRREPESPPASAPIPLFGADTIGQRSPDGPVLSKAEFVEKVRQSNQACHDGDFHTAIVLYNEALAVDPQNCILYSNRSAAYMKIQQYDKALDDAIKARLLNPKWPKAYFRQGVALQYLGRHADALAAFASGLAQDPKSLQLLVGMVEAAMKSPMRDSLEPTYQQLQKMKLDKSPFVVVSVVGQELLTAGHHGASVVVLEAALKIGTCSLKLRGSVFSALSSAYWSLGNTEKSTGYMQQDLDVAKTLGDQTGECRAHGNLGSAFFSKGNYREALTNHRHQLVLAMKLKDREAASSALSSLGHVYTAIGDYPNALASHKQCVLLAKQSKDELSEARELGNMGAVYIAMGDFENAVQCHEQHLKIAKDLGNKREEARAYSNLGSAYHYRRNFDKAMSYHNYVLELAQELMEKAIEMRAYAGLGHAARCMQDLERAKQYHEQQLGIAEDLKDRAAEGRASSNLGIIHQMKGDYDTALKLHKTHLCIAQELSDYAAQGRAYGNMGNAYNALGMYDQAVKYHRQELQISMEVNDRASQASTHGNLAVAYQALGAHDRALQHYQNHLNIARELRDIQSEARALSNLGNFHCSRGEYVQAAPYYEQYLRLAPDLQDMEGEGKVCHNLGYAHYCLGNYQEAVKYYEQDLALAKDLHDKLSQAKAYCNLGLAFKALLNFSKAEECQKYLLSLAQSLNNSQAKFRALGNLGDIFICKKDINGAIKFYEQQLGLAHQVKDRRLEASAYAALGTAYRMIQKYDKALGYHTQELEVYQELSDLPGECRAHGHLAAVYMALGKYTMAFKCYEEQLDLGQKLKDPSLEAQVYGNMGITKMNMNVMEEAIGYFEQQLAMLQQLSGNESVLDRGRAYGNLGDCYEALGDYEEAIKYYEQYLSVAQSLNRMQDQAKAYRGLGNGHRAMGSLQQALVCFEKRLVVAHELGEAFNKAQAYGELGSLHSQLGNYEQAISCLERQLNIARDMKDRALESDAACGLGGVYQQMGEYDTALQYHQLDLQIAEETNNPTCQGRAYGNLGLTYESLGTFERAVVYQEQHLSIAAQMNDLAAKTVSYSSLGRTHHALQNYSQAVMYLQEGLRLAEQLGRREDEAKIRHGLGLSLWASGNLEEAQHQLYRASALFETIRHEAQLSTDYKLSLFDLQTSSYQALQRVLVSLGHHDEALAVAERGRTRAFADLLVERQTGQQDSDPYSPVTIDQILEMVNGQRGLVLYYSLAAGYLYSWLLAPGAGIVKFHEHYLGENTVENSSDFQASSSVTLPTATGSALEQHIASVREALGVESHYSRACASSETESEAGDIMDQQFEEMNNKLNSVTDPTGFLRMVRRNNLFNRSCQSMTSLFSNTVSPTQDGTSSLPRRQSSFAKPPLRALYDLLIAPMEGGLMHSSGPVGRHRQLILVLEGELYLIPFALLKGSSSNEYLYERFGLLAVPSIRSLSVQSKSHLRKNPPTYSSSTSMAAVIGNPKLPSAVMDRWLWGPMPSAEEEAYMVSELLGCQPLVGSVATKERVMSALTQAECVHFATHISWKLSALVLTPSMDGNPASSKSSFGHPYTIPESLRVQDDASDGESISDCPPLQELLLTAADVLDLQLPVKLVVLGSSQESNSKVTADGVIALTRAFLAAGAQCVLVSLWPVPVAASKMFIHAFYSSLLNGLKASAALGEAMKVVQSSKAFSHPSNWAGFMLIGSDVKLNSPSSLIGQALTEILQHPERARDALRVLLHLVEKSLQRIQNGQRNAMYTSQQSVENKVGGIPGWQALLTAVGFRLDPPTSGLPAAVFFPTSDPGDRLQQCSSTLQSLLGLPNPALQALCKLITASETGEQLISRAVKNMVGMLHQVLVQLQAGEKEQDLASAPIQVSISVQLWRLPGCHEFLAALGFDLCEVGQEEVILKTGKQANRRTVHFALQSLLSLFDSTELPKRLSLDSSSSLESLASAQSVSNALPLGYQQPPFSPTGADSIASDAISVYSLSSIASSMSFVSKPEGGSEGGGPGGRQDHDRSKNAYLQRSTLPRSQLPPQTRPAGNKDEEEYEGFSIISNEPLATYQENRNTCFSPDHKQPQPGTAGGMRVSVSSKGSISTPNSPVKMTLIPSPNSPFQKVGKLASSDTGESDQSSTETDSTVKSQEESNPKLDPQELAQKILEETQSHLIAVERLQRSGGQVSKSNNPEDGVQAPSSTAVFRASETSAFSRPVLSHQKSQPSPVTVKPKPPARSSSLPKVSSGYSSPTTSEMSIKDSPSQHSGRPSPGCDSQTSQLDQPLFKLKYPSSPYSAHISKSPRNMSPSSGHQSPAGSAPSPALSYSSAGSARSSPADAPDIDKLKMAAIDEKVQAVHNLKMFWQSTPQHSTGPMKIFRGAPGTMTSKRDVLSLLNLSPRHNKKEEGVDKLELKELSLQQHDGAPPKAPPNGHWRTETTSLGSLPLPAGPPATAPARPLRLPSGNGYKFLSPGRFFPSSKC
# UniProt O60637: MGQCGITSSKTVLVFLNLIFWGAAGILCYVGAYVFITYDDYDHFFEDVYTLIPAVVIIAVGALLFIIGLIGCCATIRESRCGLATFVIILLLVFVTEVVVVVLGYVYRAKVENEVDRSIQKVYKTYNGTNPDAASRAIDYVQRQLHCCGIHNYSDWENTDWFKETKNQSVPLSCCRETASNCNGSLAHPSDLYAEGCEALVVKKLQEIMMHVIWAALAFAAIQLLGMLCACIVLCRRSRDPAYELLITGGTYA
# UniProt P14373: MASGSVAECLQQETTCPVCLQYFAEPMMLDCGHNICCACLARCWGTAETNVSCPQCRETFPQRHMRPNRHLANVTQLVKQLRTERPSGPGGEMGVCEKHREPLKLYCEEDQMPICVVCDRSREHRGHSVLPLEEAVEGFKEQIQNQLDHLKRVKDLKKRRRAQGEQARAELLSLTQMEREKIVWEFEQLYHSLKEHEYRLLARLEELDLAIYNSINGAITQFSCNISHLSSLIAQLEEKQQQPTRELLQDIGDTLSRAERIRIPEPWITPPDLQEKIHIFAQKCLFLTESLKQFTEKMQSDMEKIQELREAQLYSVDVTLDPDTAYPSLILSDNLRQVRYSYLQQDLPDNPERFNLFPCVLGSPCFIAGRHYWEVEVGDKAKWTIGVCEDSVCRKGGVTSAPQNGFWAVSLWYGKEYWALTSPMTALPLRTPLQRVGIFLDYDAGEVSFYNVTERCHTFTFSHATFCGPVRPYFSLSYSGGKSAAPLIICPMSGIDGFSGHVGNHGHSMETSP
# UniProt Q12899: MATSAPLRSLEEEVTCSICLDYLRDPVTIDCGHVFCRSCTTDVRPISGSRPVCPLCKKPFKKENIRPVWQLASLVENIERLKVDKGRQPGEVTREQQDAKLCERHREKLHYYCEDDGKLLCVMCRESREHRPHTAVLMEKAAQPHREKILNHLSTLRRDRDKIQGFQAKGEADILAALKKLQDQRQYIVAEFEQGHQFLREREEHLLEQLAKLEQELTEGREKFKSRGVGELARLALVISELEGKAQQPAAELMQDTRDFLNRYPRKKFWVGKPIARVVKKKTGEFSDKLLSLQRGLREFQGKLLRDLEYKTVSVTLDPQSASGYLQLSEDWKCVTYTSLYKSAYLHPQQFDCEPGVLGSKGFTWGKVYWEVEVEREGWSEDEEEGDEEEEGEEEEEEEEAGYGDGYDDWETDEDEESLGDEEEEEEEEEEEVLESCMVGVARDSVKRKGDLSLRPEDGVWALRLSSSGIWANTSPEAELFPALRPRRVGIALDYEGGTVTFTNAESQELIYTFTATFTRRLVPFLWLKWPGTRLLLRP
# UniProt Q6AZZ1: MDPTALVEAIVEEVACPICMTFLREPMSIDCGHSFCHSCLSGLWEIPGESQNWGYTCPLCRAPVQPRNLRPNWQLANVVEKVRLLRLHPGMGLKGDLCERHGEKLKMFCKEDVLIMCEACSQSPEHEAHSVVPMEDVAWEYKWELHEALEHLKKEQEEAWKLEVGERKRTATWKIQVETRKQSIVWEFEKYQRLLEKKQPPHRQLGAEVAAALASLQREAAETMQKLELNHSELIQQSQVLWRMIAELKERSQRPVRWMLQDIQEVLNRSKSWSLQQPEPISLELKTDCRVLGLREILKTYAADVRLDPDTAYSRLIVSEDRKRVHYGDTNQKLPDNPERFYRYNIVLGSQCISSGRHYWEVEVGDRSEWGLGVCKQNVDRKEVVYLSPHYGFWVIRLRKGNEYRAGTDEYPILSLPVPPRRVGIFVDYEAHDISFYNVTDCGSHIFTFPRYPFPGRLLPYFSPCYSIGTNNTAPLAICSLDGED
# UniProt Q9UHF7: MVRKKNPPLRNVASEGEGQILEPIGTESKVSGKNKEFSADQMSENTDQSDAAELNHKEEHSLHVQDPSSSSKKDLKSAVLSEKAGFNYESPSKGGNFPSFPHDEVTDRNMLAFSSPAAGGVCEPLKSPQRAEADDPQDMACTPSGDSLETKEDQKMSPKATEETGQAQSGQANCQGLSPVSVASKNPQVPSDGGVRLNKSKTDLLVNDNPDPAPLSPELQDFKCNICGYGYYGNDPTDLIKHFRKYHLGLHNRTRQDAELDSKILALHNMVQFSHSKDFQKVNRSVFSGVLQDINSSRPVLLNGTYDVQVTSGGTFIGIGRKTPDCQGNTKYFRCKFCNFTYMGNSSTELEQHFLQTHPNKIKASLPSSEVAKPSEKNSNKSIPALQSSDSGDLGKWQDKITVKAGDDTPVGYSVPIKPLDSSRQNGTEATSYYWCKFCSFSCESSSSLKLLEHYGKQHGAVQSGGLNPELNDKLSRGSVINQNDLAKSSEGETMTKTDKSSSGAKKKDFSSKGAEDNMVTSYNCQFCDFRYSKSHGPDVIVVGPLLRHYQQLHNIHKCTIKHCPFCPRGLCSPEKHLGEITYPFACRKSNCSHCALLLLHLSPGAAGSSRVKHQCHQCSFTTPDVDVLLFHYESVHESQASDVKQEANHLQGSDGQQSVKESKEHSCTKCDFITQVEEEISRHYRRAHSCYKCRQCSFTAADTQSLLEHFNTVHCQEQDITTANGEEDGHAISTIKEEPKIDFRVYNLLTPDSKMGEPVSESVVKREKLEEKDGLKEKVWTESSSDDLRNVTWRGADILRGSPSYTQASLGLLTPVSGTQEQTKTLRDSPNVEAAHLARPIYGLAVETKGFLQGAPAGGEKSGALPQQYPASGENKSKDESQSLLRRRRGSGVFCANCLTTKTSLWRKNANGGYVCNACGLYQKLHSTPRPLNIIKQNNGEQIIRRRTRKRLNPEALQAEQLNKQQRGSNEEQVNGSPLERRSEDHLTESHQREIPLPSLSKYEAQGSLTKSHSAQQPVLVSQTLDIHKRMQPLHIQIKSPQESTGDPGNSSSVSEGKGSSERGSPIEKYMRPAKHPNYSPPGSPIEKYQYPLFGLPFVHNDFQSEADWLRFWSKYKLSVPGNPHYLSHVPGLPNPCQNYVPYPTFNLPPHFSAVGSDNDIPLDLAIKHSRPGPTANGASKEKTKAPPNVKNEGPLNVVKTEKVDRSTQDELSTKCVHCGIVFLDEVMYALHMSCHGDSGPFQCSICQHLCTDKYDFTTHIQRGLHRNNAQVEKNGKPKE
# UniProt Q629K1: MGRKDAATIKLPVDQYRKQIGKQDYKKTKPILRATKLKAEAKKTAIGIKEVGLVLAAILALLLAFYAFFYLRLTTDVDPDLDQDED
# UniProt Q8TDR0: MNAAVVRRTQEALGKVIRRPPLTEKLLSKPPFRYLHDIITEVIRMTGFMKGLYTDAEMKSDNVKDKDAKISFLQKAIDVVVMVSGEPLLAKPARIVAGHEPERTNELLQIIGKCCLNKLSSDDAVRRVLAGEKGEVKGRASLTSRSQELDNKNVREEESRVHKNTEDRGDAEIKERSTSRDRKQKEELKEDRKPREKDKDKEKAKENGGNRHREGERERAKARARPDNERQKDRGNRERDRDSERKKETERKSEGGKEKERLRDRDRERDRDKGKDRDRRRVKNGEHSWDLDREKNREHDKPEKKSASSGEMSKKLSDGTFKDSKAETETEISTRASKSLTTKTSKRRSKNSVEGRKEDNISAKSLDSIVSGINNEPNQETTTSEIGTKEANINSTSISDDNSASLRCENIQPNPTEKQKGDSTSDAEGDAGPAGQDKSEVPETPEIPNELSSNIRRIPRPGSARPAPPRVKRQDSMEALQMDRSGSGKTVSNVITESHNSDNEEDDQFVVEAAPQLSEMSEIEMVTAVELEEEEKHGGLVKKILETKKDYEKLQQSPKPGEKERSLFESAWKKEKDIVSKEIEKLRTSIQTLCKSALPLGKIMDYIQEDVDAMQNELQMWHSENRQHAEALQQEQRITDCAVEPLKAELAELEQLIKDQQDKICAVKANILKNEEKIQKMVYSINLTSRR
# UniProt Q12999: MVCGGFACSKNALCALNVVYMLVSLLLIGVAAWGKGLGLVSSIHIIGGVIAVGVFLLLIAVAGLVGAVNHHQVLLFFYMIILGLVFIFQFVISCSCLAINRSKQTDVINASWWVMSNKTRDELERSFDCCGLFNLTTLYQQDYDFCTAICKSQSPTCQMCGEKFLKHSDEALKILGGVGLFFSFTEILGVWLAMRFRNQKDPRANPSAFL
# The other results are listed elsewhere or left out.
# Compound: Cn1cncc1[C@@](N)(c1ccc(Cl)cc1)c1ccc2c(c1)c(-c1cccc(Cl)c1)cc(=O)n2C [tipifarnib]
# Assay: log2 fold change, soluble protein after heating vs DMSO (PISA); higher = thermal stabilisation; K562 lysate, 10 uM; active = over 0.2 and 3.5 SD of the protein, either way, in both replicates (recomputed)
# How it was run: (§1)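 Pellets of K562 cells were dounce-homogenised in PBS pH 7.4 with 1 mM MgCl2, and the crude extract was held at 1 mg/mL protein for a 30 min treatment with 10 μM compound. Aliquots were heated for 3 min over 48°C-58°C and pooled before NP-40 was added to 0.5% at 4°C. The supernatant from 21,000xg for 90 min was quantified by TMTpro 16plex LC-MS/MS with channel sums equalised. Values are reported from duplicates as log-two fold change in thermal stability relative to solvent controls.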
row,Target,log2 fold change
1,TTC26,inactive: 0.167
2,TTC28 (UniProt Q96AY4),inactive: 0.101
3,TTC3 (UniProt P53804),inactive: -0.363
4,TSPAN3 (UniProt O60637),inactive: -0.032
5,TTC7A isoform 4 (UniProt Q9ULT0),inactive: 0.17
6,TRIM27 (UniProt P14373),inactive: 0.008
7,TRIM26 (UniProt Q12899),inactive: 0.061
8,TTF1 (UniProt Q15361),inactive: 0.033
9,TRIM68 (UniProt Q6AZZ1),inactive: 0.005
10,TTC21B (UniProt Q7Z4L5),inactive: 0.021
11,TTLL4 (UniProt Q14679),inactive: 0.033
12,"TSEN15, A0A2U3TZM3",inactive: -0.269

# Compound: NC(=O)Nc1cc(-c2cccc(F)c2)sc1C(=O)N[C@H]1CCCNC1
# Assay: as above
# How it was run: as §1
row,Target,log2 fold change
1,TRPM4 (UniProt Q8TD43),inactive: 0.111
2,TSC22D3 isoform 3 (UniProt Q99576),inactive: -0.032
3,TTLL12 (UniProt V9GY16),inactive: -0.021
4,TSPAN4 (UniProt O14817),inactive: 0.043
5,TTC28 (UniProt Q96AY4),inactive: 0.108
6,TSC22D1 isoform 2 (UniProt Q15714),inactive: 0.078
7,TTC13 (UniProt Q8NBP0),inactive: -0.062
8,TRAM2 (UniProt Q15035),inactive: 0.088
9,TRPS1 isoform 2 (UniProt Q9UHF7),inactive: 0.199
10,TRIQK (UniProt Q629K1),inactive: -0.01
11,TRIM41 (UniProt Q8WV44),inactive: 0.027
12,TRMO (UniProt Q9BU70),inactive: 0.058
13,TSKS (UniProt Q9UJT2),inactive: -0.005
14,TRIM27 (UniProt P14373),inactive: 0.068
15,TRIM26 (UniProt Q12899),inactive: -0.076
16,TTBK2 (UniProt Q6IQ55),inactive: 0.052
17,TTC30B (UniProt Q8N4P2),inactive: 0.139
18,TRAF3IP1 (UniProt Q8TDR0),inactive: 0.025
19,TRMT44 (UniProt Q8IYL2),inactive: 0.13
20,TRIM68 (UniProt Q6AZZ1),inactive: 0.072
21,TRIOBP (UniProt Q9H2D6),inactive: 0.039
22,TRIM37 (UniProt O94972),inactive: 0.122
23,TSPAN31 (UniProt Q12999),inactive: -0.007

# Compound: NC(=O)c1cnc(N[C@@H]2CCCC[C@@H]2N)nc1Nc1cccc(-n2nccn2)c1
# Assay: as above
# How it was run: as §1
row,Target,log2 fold change
1,TTC13 (UniProt Q8NBP0),inactive: 0.562
2,TRAM2 (UniProt Q15035),inactive: 0.208
3,TSPAN3 (UniProt O60637),inactive: -0.098
4,TRPS1 isoform 2 (UniProt Q9UHF7),inactive: -0.086
5,TRIQK (UniProt Q629K1),inactive: -0.007
6,TRIM41 (UniProt Q8WV44),inactive: 0.077
7,TRIM67 (UniProt Q6ZTA4),inactive: 0.215
8,TRIM26 (UniProt Q12899),inactive: -0.001
9,TRIM3 (UniProt O75382),inactive: 0.623
10,TRAF3IP1 (UniProt Q8TDR0),inactive: -0.035
11,TRIOBP (UniProt Q9H2D6),inactive: -0.041
12,"TSEN15, A0A2U3TZM3",inactive: 0.08
13,TTC39B (UniProt Q5VTQ0),inactive: -0.042

# Compound: NC1(c2ccc(-c3nc4ccn5c(=O)[nH]nc5c4cc3-c3ccccc3)cc2)CCC1
# Assay: as above
# How it was run: as §1
row,Target,log2 fold change
1,TRPM4 (UniProt Q8TD43),inactive: 0.089
2,TSC22D3 isoform 3 (UniProt Q99576),inactive: 0.039
3,TRAF5 isoform 2 (UniProt O00463),inactive: -0.099
4,TTLL12 (UniProt V9GY16),inactive: 0.039
5,TSPAN4 (UniProt O14817),inactive: -0.015
6,TTC28 (UniProt Q96AY4),inactive: -0.147
7,TRAF3IP2 (UniProt O43734),inactive: -0.088
8,TTC3 (UniProt P53804),inactive: 0.061
9,TSPAN3 (UniProt O60637),inactive: 0.015
10,TRPS1 isoform 2 (UniProt Q9UHF7),inactive: 0.007
11,TRIQK (UniProt Q629K1),inactive: 0.037
12,TRIB3 (UniProt Q96RU7),inactive: 0.108
13,TSPYL6 (UniProt Q8N831),inactive: 0.046
14,TSKS (UniProt Q9UJT2),inactive: -0.032
15,TRIM27 (UniProt P14373),inactive: 0.069
16,TRIM67 (UniProt Q6ZTA4),inactive: 0.079
17,TTBK2 (UniProt Q6IQ55),inactive: -0.16
18,TRUB2 (UniProt O95900),inactive: -0.016
19,TRIM3 (UniProt O75382),inactive: 0.146
20,TRAF3IP1 (UniProt Q8TDR0),inactive: -0.081
21,TRIM16 (UniProt O95361),inactive: -0.092
22,TRIM68 (UniProt Q6AZZ1),inactive: 0.05
23,TRIOBP (UniProt Q9H2D6),inactive: 0.007
24,TTC21B (UniProt Q7Z4L5),inactive: 0.139
25,TRIM37 (UniProt O94972),inactive: 0.008
26,TTC39B (UniProt Q5VTQ0),inactive: 0
